To fix the notation:
T1: Apolipoprotein A4 (APOA4) in gonadal fat tissue of WT mice injected with recombinant mouse APOA4 (mouse) (UniProt P06728)
T1 sequence: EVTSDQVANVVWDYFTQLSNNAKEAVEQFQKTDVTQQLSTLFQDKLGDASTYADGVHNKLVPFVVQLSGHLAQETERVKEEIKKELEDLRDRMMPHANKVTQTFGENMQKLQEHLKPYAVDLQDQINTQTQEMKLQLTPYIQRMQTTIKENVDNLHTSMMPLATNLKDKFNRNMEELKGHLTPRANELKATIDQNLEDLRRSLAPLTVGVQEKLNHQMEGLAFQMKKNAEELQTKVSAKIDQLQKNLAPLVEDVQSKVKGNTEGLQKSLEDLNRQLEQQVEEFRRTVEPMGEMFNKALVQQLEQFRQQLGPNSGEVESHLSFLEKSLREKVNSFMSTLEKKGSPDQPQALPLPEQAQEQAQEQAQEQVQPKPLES

Sequences of proteins named here, by UniProt entry; tags and fusion partners are left off.
UniProt P26039: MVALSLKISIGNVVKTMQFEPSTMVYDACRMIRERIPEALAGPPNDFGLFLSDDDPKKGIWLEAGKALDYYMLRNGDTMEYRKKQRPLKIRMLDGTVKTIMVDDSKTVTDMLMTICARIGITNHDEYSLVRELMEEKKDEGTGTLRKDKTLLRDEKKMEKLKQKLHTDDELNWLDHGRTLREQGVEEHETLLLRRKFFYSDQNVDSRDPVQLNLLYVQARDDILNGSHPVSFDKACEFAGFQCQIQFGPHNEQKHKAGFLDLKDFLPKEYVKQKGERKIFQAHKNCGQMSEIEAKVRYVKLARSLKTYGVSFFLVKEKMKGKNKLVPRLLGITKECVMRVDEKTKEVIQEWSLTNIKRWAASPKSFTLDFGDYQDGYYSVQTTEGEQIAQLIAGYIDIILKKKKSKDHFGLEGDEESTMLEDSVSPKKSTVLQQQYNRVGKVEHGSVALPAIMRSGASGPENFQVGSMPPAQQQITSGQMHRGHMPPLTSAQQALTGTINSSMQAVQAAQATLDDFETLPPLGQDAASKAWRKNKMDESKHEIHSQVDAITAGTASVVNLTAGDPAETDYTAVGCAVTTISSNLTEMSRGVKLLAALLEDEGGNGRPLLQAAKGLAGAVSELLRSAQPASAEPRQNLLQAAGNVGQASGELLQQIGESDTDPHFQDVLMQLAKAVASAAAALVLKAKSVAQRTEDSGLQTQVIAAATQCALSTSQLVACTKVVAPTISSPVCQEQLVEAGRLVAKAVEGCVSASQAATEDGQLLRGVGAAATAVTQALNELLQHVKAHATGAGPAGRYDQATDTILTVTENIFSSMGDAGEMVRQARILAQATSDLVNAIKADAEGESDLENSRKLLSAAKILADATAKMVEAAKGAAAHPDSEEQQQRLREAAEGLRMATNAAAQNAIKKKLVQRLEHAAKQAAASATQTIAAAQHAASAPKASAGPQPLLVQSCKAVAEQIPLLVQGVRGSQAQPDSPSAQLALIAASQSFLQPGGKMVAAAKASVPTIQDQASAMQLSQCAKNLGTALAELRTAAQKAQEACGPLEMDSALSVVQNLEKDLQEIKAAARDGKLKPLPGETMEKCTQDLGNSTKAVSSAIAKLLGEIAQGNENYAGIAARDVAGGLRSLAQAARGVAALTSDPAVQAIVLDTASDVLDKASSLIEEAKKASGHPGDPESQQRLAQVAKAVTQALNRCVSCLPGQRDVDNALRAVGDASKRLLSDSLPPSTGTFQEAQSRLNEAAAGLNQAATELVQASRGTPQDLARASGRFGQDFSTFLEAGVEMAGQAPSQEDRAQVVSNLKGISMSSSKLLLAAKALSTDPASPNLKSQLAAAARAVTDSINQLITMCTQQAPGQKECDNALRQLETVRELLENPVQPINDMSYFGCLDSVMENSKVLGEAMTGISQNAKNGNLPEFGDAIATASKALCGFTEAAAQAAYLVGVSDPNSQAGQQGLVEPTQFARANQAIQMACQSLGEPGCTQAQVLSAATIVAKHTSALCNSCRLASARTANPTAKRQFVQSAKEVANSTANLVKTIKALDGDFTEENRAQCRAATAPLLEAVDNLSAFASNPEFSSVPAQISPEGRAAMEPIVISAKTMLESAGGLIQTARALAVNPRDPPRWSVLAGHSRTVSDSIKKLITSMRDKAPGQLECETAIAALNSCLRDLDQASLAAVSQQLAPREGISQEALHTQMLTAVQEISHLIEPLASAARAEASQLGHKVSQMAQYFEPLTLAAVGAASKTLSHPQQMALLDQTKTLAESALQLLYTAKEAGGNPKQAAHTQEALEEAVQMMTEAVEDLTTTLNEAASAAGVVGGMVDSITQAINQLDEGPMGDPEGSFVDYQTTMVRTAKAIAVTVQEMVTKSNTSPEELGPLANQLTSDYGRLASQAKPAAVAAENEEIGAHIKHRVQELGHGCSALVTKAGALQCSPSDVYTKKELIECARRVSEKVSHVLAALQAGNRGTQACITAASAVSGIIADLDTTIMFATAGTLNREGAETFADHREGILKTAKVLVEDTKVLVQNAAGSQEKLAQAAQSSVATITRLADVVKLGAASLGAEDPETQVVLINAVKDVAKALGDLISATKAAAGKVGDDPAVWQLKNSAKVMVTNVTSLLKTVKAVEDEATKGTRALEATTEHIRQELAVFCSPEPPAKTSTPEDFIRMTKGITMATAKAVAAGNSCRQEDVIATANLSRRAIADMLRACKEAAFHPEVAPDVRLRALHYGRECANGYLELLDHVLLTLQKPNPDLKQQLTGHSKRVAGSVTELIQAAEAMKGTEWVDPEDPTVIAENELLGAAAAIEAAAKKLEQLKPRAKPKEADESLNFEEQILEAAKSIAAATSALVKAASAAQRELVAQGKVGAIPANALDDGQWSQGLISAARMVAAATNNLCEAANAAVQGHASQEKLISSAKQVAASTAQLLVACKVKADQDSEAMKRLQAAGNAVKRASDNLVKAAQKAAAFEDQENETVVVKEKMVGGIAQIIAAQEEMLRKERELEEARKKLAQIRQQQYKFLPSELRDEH
UniProt Q71LX4: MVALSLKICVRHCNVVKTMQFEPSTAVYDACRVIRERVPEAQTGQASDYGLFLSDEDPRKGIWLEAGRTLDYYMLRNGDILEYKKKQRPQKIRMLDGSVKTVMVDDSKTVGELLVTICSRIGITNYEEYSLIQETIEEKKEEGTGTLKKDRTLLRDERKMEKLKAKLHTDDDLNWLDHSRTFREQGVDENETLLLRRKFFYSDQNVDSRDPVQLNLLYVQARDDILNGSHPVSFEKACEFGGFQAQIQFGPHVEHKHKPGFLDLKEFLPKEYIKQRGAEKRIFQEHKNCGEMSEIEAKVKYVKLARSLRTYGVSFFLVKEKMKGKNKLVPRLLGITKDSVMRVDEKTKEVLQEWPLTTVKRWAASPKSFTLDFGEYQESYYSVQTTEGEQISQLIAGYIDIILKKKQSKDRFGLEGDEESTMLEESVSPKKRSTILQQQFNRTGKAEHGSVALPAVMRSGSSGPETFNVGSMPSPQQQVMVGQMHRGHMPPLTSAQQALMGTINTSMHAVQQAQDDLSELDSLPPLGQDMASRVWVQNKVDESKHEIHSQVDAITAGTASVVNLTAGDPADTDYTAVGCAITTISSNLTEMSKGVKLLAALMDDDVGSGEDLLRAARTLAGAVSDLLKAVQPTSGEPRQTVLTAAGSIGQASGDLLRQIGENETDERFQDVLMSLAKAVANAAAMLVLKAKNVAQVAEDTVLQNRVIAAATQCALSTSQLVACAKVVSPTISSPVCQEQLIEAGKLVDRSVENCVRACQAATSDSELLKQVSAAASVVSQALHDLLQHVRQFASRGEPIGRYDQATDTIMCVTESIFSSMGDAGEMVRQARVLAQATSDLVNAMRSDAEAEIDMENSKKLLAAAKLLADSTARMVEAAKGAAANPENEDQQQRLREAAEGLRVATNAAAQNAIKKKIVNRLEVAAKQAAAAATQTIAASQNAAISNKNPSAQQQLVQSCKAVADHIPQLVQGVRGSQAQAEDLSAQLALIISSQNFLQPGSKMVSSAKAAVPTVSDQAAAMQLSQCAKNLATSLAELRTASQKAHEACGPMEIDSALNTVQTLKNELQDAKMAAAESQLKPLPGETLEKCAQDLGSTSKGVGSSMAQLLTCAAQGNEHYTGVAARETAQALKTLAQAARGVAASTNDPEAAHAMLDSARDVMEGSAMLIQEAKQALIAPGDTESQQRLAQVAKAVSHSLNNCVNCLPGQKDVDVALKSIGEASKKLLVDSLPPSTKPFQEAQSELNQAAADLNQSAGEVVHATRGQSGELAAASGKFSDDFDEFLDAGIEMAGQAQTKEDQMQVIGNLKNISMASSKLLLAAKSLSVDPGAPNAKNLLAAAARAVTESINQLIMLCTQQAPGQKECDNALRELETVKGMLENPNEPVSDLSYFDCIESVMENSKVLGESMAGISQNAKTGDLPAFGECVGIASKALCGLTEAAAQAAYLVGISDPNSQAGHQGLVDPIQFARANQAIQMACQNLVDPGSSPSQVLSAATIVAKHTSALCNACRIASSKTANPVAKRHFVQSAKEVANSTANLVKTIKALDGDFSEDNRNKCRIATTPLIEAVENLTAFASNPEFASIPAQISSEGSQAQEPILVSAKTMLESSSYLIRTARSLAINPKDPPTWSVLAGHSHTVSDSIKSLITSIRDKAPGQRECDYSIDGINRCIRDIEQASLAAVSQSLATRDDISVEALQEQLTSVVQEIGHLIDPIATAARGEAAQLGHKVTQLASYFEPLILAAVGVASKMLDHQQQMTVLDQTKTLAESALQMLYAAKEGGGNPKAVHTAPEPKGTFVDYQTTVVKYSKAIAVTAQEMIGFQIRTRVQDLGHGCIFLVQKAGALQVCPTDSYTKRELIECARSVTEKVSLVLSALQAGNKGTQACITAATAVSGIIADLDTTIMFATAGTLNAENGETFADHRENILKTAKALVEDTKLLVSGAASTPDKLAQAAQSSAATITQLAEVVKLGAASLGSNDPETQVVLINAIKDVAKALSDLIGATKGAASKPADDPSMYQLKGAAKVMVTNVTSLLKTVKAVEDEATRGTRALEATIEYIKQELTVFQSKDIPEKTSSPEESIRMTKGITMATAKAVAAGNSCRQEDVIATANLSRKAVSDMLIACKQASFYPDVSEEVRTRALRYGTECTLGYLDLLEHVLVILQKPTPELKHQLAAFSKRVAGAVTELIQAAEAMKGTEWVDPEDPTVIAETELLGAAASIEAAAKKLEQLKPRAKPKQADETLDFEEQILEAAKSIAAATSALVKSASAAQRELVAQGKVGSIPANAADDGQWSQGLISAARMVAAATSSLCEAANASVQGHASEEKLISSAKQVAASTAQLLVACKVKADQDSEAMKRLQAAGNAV

B1: Glyceronephosphate O-acyltransferase (GNPAT) (enzyme, UniProt P98192 1-678)
chain: MDVPSSSSSRFSVGSASPSSVLLYAKDLKKWDEFEDLLEERRHISDFKFAMKCYTPPLYRGITPCKPGDIKSIVLSSEEINYVIKQLSRESLTGVDVLREEASEILEEMSHKLRIGAIRFFAFVLSKIFKQIFSKVCVNEEGIQKLQRAVQEHPVVLLPSHRSYIDFLMLSFILYSYDLPVPVIAAGMDFLGMRVVSELLRMSGAFFMRRTFGGNKLYWAVFSEYVKTMLRCGYAPVEFFLEGTRSRAAKTLTPKFGLLNIVMEPFFKREVFDTYFVPISISYDKILEESLYAYEILGVPKPKESTTGLLKARRILSENFGSIHVYFGDPVSLRSLAAGRLNRNTYNLVPRCIPQKQPEDVQAFVTEVAYKMQLLQIENLALSPWLLVVTILLQNQLSMDFDALVEKTLWLKGVTQVFGGFLLWPDNKLPEEVVQSSILLHSNLASLVKDQVVLKMNSGSSQVVNGLVPEHIALLMCSAYRNQLLNIFARPSLVALALHMTPGLRKEDVFSCFSFLRNVFSDEFIFLPGNTLRDFEEGCYLLCKAEAMQMAGKDIILTDKGTAVLQFLTSLFKPFVESYQLLCRYLLHEEDYFGEKEYLVAARKFTRQLLDQGSSQCYDALSSELQKNALAAFVRLGVVEKKKVDSKYVYYVNGPATSKLEEMLGCKKPIGKPATAKL
B2: Lipin1 (LPIN1) (protein, UniProt Q91ZP3 1-924)
chain: MNYVGQLAGQVFVTVKELYKGLNPATLSGCIDIIVIRQPNGSLQCSPFHVRFGKMGVLRSREKVVDIEINGESVDLHMKLGDNGEAFFVQETDNDQEIIPMYLATSPILSEGAARMESQLKRNSVDRIRCLDPTTAAQGLPPSDTPSTGSLGKKRRKRRRKAQLDNLKRDDNVNSSEDEDMFPIEMSSDEDTAPMDGSRTLPNDVPPFQDDIPKENFPSISTHPQSASYPSSDREWSPSPSSLVDCQRTPPHLAEGVLSSSCPLQSCHFHASESPSGSRPSTPKSDSELVSKSADRLTPKNNLEMLWLWGELPQAAKSSSPHKMKESSPLGSRKTPDKMNFQAIHSESSDTFSDQSPTMARGLLIHQSKAQTEMQFVNEEDLESLGAAAPPSPVAEELKAPYPNTAQSSSKTDSPSRKKDKRSRHLGADGVYLDDLTDMDPEVAALYFPKNGDPGGLPKQASDNGARSANQSPQSVGGSGIDSGVESTSDSLRDLPSIAISLCGGLSDHREITKDAFLEQAVSYQQFADNPAIIDDPNLVVKVGNKYYNWTTAAPLLLAMQAFQKPLPKATVESIMRDKMPKKGGRWWFSWRGRNATIKEESKPEQCLTGKGHNTGEQPAQLGLATRIKHESSSSDEEHAAAKPSGSSHLSLLSNVSYKKTLRLTSEQLKSLKLKNGPNDVVFSVTTQYQGTCRCEGTIYLWNWDDKVIISDIDGTITRSDTLGHILPTLGKDWTHQGIAKLYHKVSQNGYKFLYCSARAIGMADMTRGYLHWVNERGTVLPQGPLLLSPSSLFSALHREVIEKKPEKFKVQCLTDIKNLFFPNTEPFYAAFGNRPADVYSYKQVGVSLNRIFTVNPKGELVQEHAKTNISSYVRLCEVVDHVFPLLKRSHSCDFPCSDTFSNFTFWREPLPPFENQDMHSASA
B3: Malonyl-CoA decarboxylase (MLYCD) (enzyme, UniProt Q99J39 39-492)
chain: MDELLRRAVPPTPAYELREKTPAPAEGQCADFVSFYGGLAEASQRAELLGRLAQGFGVDHGQVAEQSAGVLQLRQQAREAAVLLQAEDRLRYALVPRYRGLFHHISKLDGGVRFLVQLRADLLEAQALKLVEGPHVREMNGVLKSMLSEWFSSGFLNLERVTWHSPCEVLQKISECEAVHPVKNWMDMKRRVGPYRRCYFFSHCSTPGEPLVVLHVALTGDISNNIQGIVKECPPTETEERNRIAAAIFYSISLTQQGLQGVELGTFLIKRVVKELQKEFPQLGAFSSLSPIPGFTKWLLGLLNVQGKEHGRNELFTDSECQEISAVTGNPVHESLKGFLSSGEWVKSEKLTQALQGPLMRLCAWYLYGEKHRGYALNPVANFHLQNGAVMWRINWMADSSLKGLTSSCGLMVNYRYYLEETGPNSISYLGSKNIKASEQILSLVAQFQNNSKL
B4: Proline-serine-threonine phosphatase interacting protein 2 (PSTPIP2) (protein, UniProt Q99M15 1-334)
chain: MTGSLFKGNFWSTDILSTIGYDSIIQHLNNGRKNCKEFEDFLKERASIEEKYGKDLLNLSRKKPCGQSEINTLKRALEVFKQQVDNVAQCHIQLAQTLREEARKMEEFREKQKLQRKKTETIMDAAHKQRNAQFKKAMDAKKNYEQKCRDKDEAEQAVHRSANVANQRQQEKLFVKLATSKTAVEDSDKAYMLHINMLEKVREDWQSEHIKACEVFEAQECERINFFRNALWLHLNQLSQQCVANDEMYEQVRKSLETCSIEKDIQYFVNQRKTGQTPPAPIMYENFYSPQRNAAPPGKTTGPNPARRGPLPVPKRIPDDPDYSVVEDYSLLYQ

Results are given in words; binding and its absence hold for the method and conditions named. Binding seen in cells or lysates may run through a third protein. Here binding means that the protein was enriched with, or labelled near, the bait; the list need not be complete.

The first experiment deals with T1, Apolipoprotein A4 (APOA4) in gonadal fat tissue of WT mice injected with recombinant mouse APOA4 (mouse). The experiment in a line: affinity purification with mass spectrometry; goat anti-mouse APOA4 (goat IgG isotype control in parallel) conjugated to agarose beads; 10 mg pooled gonadal fat tissue lysate of male and female WT mice fasted 5 h and injected i.p. with r-m-APOA4 (2.5 ug/g) 2 h before; overnight at 4 °C; eluate resolved by SDS-PAGE, in-gel trypsin digestion, LC-MS/MS.
With B1, the binding entry is recorded as “binds”.
On to B2, for which the binding result is given as “binds”.
For B3, the binding entry was “binds”.
Still for that read-out and setting: with B4 the entry was “binds”.

For the next experiment the target is unchanged. Described as above. This is another data set of the same source.
“Talin 1 (TLN1) (from UniProt P26039 1-2541)”: the binding entry is on record as “binds”.
Same read-out and setting: the result for “Talin 2 (TLN2) (from UniProt Q71LX4 1-2375)” reads “binds”; that for “Low-density lipoprotein receptor-related protein 1 (LRP1) (mouse (endogenous in gonadal fat tissue))”, “binds”.
